Assay results from paper PMC4855144.
No constants are given. Whether binding was seen depends on the method and setting. In cells and extracts the contact can be indirect. Binding calls can cover weak binding; strength is not graded here.

By UniProt entry, the sequences of proteins in these tests, tags left out. Where a name states a change or a piece, a line headed by the entry shows the natural chain unless it says otherwise.
UniProt P60953: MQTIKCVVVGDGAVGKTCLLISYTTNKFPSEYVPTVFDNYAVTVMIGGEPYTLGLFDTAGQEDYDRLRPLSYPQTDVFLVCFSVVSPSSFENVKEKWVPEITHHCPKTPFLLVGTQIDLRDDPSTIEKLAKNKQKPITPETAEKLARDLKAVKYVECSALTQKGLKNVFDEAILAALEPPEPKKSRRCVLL
UniProt P57737: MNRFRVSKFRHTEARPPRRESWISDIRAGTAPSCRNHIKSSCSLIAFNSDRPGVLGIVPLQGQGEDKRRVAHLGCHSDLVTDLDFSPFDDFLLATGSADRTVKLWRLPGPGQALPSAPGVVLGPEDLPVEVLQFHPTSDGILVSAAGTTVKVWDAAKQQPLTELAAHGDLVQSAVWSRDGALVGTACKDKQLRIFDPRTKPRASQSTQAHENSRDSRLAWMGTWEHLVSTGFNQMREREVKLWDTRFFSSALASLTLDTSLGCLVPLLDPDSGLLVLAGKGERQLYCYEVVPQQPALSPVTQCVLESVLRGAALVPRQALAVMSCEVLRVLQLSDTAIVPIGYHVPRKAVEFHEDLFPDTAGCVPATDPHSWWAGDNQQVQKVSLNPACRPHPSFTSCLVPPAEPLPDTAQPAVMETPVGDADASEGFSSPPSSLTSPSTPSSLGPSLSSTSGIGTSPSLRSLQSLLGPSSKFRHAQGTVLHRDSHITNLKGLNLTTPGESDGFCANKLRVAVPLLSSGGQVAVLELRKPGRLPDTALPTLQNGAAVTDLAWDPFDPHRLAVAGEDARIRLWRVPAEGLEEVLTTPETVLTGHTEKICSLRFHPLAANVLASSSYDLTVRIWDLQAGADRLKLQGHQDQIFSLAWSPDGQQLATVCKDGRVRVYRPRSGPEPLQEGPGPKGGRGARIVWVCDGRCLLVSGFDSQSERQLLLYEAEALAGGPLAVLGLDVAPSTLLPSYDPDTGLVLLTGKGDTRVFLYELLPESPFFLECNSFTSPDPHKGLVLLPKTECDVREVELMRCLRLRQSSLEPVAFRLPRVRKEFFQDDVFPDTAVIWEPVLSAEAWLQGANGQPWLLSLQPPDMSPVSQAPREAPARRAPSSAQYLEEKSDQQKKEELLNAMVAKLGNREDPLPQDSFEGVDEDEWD

What was measured:
[1] = target: GST-Cdc42 constitutively active (CA/Q61L), preloaded with GTPγS (UniProt P60953); test: pull-down; Glutathione-Sepharose beads coated with GST alone or GST-GTPase fusions pre-loaded with GDP (DN) or GTPγS (CA), incubated with lysates of HEK293T cells expressing GFP-CRN7 WT or CRIB mutants; blot with GFP mAb K3-184-2 or anti-N-WASP; ImageJ quantification, input set at 100%; only the target purified
[2] = target: GST-Cdc42 dominant negative (DN/T17N), preloaded with GDP (UniProt P60953); test: as above

Row | binding [1] | binding [2] | Substance
1 | binds | binds | GFP-Mut1 (GFP-CRN7 with SXP of the NT-CRIB changed to alanines) (from UniProt P57737)
2 | binds | binds | GFP-Mut2 (GFP-CRN7 with LTXP of the CT-CRIB changed to alanines) (from UniProt P57737)
